Results taken from patent publication US10596223B2 (Xigen Inflammation Ltd., priority 2011, dated 2020).

Experiment: general procedure: Fmoc solid-phase peptide synthesis; Fmoc-Rink amide-MBHA resin; PyBOB/diisopropylethylamine/1-hydroxybenzotriazole (printed for linker coupling)
Details: whole synthesis, scale 0.7 mmol, acetate salt

H-[dR]KKR[dR]QRR[dR]RP[dK]RP[dA]TLNL[dF]-NH2 (N-terminus assumed; SMILES CC(C)C[C@H](NC(=O)[C@H](CC(N)=O)NC(=O)[C@H](CC(C)C)NC(=O)[C@@H](NC(=O)[C@@H](C)NC(=O)[C@@H]1CCCN1C(=O)[C@H](CCCNC(=N)N)NC(=O)[C@@H](CCCCN)NC(=O)[C@@H]1CCCN1C(=O)[C@H](CCCNC(=N)N)NC(=O)[C@@H](CCCNC(=N)N)NC(=O)[C@H](CCCNC(=N)N)NC(=O)[C@H](CCCNC(=N)N)NC(=O)[C@H](CCC(N)=O)NC(=O)[C@@H](CCCNC(=N)N)NC(=O)[C@H](CCCNC(=N)N)NC(=O)[C@H](CCCCN)NC(=O)[C@H](CCCCN)NC(=O)[C@H](N)CCCNC(=N)N)[C@@H](C)O)C(=O)N[C@H](Cc1ccccc1)C(N)=O)
final purity (method not given): ≥95%

Square brackets hold non-standard residues; d marks the D form.
